Measurements taken from paper PMC12431657, “Discovery and mechanistic insights of dibenzoylmethane as a broad spectrum inhibitor of coronavirus” (PLOS Pathogens, 2025).
Where a name gives a salt, the structure may show the parent alone. Read-outs that look alike come from different tables or passages of the source. The campaign covered roughly 3,300 compounds. About 95 (3%) showed an effect of 50% or more. The list shows a part of the results.

System: HCoV-229E
Design: species or system Huh-7; HTS, protection from HCoV-229E induced cell death, luminescent cell viability (CellCounting-Lite 2.0), inhibition rate
Conditions: 24 h post infection, 1 h compound pre-incubation, 10 µM, inhibitor

SMILES | 229E Inhibition rate | 229E Inhibition rate (229E Inhibition rate, 24 h)
Cc1cc2nc[nH]c2cc1C [5,6-Dimethyl-1H-benzo[d]imidazole] | 19.9% | 
C=C1CCCc2c(ccc3c2C(=O)C(=O)c2c(C)coc2-3)/C(C)=C/CCc2c1ccc1c2C(=O)C(=O)c2c(C)coc2-1 [Neoprzewaquinone A] | 4.9% | 
Cc1ccc(C(=O)O)cc1C [3,4-Dimethylbenzoic acid] | 23.9% | 
Nc1nc(=O)c2c([nH]1)NCC(CNc1ccc(C(=O)N[C@@H](CCC(=O)O)C(=O)O)cc1)=N2 [Dihydrofolic acid] | 8.2% | 
c1cn[nH]c1 [1H-pyrazole] | 8% | 
COc1ccc(CC(=O)c2ccc(O)cc2O)cc1 [Ononetin] | 12.2% | 
C[N+](C)(C)CC(O)CC(=O)O (racemic) [(±)-Carnitine (chloride)] | 11.9% | 
O=C1C[C@@H](C(=O)O)NC(=O)N1 [L-Dihydroorotic acid] | 10.8% | 
CCC/C=C1\OC(=O)C2=C1CC[C@H](O)[C@H]2O [Senkyunolide I] | 43.1% | 
OC[C@H]1O[C@@H](Oc2cc3c(O)cc(O)cc3[o+]c2-c2ccc(O)c(O)c2)[C@H](O)[C@@H](O)[C@@H]1O [Kuromanin (chloride)] | 8.6% | 
COc1ccc2cc1Oc1ccc(cc1)C[C@H]1c3c(cc4c(c3Oc3cc5c(cc3OC)CCN(C)[C@@H]5C2)OCO4)CCN1C [Cepharanthine] | 3.5% | 
COc1cc(C(O)C(=O)O)ccc1O (stereo not drawn) [Vanillylmandelic acid] | 10.9% | 
COc1ccc(CCO[C@@H]2O[C@H](CO[C@@H]3OC[C@H](O)[C@H](O)[C@H]3O)[C@@H](OC(=O)/C=C/c3ccc(O)c(OC)c3)[C@H](O[C@@H]3O[C@@H](C)[C@H](O)[C@@H](O)[C@H]3O)[C@H]2O)cc1O [Angoroside C] | 7.5% | 
CCCCCCCCCCCCCCC(=O)O [Pentadecanoic acid] | 21.1% | 
C[C@@H]1O[C@@H](O[C@H]2[C@H](OC(=O)[C@]34CCC(C)(C)C[C@H]3C3=CC[C@@H]5[C@@]6(C)C[C@H](O)[C@H](O[C@@H]7O[C@H](CO)[C@@H](O)[C@H](O)[C@H]7O)C(CO)(CO)[C@@H]6CC[C@@]5(C)[C@]3(C)C[C@H]4O)OC[C@H](O)[C@@H]2O)[C@H](O)[C@H](O)[C@H]1O[C@@H]1OC[C@@H](O)[C@H](O[C@@H]2OC[C@](O)(CO)[C@H]2O)[C@H]1O [Platycodin D] | 22% | 
O=C(O)C1=CO[C@@H](O[C@@H]2O[C@H](CO)[C@@H](O)[C@H](O)[C@H]2O)[C@H]2[C@@H]1C=C[C@]2(O)CO [Monotropein] | 14.4% | 
C=C[C@H]1CN2CC[C@H]1C[C@@H]2[C@@H](O)c1ccnc2ccc(OC)cc12 [Quinidine hydrochloride monohydrate] |  | 48.6%
O=C(O)C[C@@H]1C(=O)O[C@H]2[C@@H]3OC(=O)c4cc(O)c(O)c(O)c4-c4c(cc(O)c(O)c4O)C(=O)OC[C@H]2O[C@@H](OC(=O)c2cc(O)c(O)c(O)c2)[C@@H]3OC(=O)c2cc(O)c(O)c3c2[C@H]1[C@H](O)C(=O)O3 [Chebulagic acid] | 8.8% | 
CCCCC[C@H](O)CC(=O)CCc1ccc(O)c(OC)c1 [[6]-Gingerol] | 52.8% | 
Nc1nc2c(nc(O)n2[C@@H]2O[C@H](CO)[C@@H](O)[C@H]2O)c(=O)[nH]1 [8-Hydroxyguanosine] | 0% | 
CC(=O)c1ccc2c(c1)C=CC(C)(C)O2 [Demethoxyencecalin] | 12.9% | 
CC(=O)CC[C@@H](C)O[C@@H]1O[C@@H](C)[C@H](O)C[C@H]1O [Ascr#2] | 7.4% | 
CC1(C)CC[C@]2(C(=O)O[C@@H]3O[C@H](CO)[C@@H](O)[C@H](O)[C@H]3O)CC[C@]3(C)C(=CC[C@@H]4[C@@]5(C)CC[C@H](O[C@@H]6O[C@H](C(=O)O)[C@@H](O)[C@H](O[C@@H]7OC[C@@H](O)[C@H](O)[C@H]7O)[C@H]6O)C(C)(C)[C@@H]5CC[C@]43C)[C@@H]2C1 [Momordin IIc] | 29.6% | 
O=C1C[C@@H](c2ccc(O[C@@H]3O[C@H](CO)[C@@H](O)[C@H](O)[C@H]3O)cc2)Oc2cc(O[C@@H]3OC[C@](O)(CO)[C@H]3O)ccc21 [Liguiritigenin-7-O-D-apiosyl-4'-O-D-glucoside] | 7.8% | 
O=C(O)Cc1cccnc1 [3-Pyridineacetic acid] | 10.7% | 
CC(=O)c1ccccc1 [Acetophenone] | 31.9% | 
NCCC(=O)O [β-Alanine] | 7.8% | 

Taken from the results shown (2 entries):
SMILES | 229E Inhibition rate | 229E Inhibition rate (229E Inhibition rate, 24 h)
C=C1CCCc2c(ccc3c2C(=O)C(=O)c2c(C)coc2-3)/C(C)=C/CCc2c1ccc1c2C(=O)C(=O)c2c(C)coc2-1 [Neoprzewaquinone A] | 4.9% | 
Cc1ccc(C(=O)O)cc1C [3,4-Dimethylbenzoic acid] | 23.9% | 
